These are literature values, as cited in US4069016A, “Assay for bilirubin” (priority 1977, dated 1978).

The structures appear in SMILES notation.

The test system of this data set is Human Serum Albumin. The note with it: pH 7.4, 37° C; cited from earlier work.

As to `Nc1ccc(S(N)(=O)=O)cc1` [Sulfanilamide, reference compound], the “Binding Constant of primary or high affinity site(s) KA” value is below 20 M⁻¹.
